Measurements from PubChem BioAssay AID248 (DTP/NCI, 2004).
The list shows only some results of the screen, not a fair sample: it is rich in T/C values a quarter to a half above the control, in often repeated tests (any T/C) and in doses without a T/C. Further doses and runs are listed elsewhere. T/C: endpoint of the treated group in % of that of the vehicle group. Some entries give survivors of the animals treated and no T/C: the source files T/C as zero there, which appears to mark a toxic dose or a test without result, not a measured value. Some survivor counts are full or nearly so, which does not show that the dose was tolerated: the source hardly ever lists a survival T/C far under the control, and the zero likely stands for such cases as well. Survivors were counted at the toxicity check, usually on the fifth day, unless a day is given; later deaths do not show. Schedule codes are those of the source, read here as Q, the interval in days (D) or hours (H), X, the number of doses. For survival time, the PubChem record calls one and a half times the control and up active, and a quarter to a half above the control has no call in these data; cut-offs in other NCI protocols can differ. Some schedules carry Z or #; the key to these is not given.

System: L1210 leukemia ip in BDF1 mice, survival T/C
Assay: NCI In Vivo Anticancer Drug Screen. Data for tumor model L1210 Leukemia (intraperitoneal) in B6D2F1 (BDF1) mice
Details: T/C endpoint: mean survival time, higher T/C = longer survival
[1] = dose: 400.0 mg/kg/injection, schedule: Q04DX003 (ip), vehicle: saline with Tween-80
[2] = dose: 400.0 mg/kg/injection, schedule: Q01DX009 (ip), vehicle: Klucel (hydroxypropylcellulose) (HPC)

O=C(Nc1ccc(NC(=O)Nc2cc(C(=O)Nc3ccc(C4=NCCN4)cc3)ccc2C(=O)Nc2ccc(C3=NCCN3)cc2)cc1)Nc1cc(C(=O)Nc2ccc(C3=NCCN3)cc2)ccc1C(=O)Nc1ccc(C2=NCCN2)cc1
T/C (dose: 180.0 mg/kg/injection, schedule: Q01DX Z (ip), vehicle: saline): 131 % of control
T/C (dose: 270.0 mg/kg/injection, schedule: Q01DX Z (ip), vehicle: saline): 146 % of control

Nc1ccc(S(=O)(=O)c2ccc(NCC(=O)O)cc2)cc1
survivor count [1]: 5 of 6

CC(=O)[O][Pb]([CH3])([CH3])[CH3]
survivor count (dose: 20.0 mg/kg/injection, schedule: Q01DX001 (ip), vehicle: carboxymethylcellulose (CMC)): 0 of 4
survivor count (dose: 40.0 mg/kg/injection, schedule: Q01DX001 (ip), vehicle: carboxymethylcellulose (CMC)): 0 of 4
survivor count (dose: 80.0 mg/kg/injection, schedule: Q01DX001 (ip), vehicle: carboxymethylcellulose (CMC)): 0 of 4
survivor count (dose: 100.0 mg/kg/injection, schedule: Q04DX003 (ip), vehicle: saline with Tween-80): 0 of 3
survivor count (dose: 200.0 mg/kg/injection, schedule: Q04DX003 (ip), vehicle: saline with Tween-80): 0 of 3
survivor count [1]: 0 of 3

Nc1nc2nc3c(nc2c(=O)[nH]1)CN(c1ccc(C(=O)NC(CCC(=O)O)C(=O)O)cc1)C3=O (stereo not given)
survivor count (dose: 400.0 mg/kg/injection, schedule: Q01DX009 (ip), vehicle: saline with Tween-80): 3 of 6

O=C(Nc1ccc2c(c1)OCO2)O/N=C1\C(=O)Nc2ccccc21
survivor count (dose: 200.0 mg/kg/injection, schedule: Q01DX009 (ip), vehicle: saline): 5 of 6

CCN(CC)c1cc[c]([Hg][O]C(C)=O)cc1
survivor count (dose: 25.0 mg/kg/injection, schedule: Q04DX003 (ip), vehicle: saline with Tween-80): 0 of 6
survivor count (dose: 100.0 mg/kg/injection, schedule: Q04DX002 (ip), vehicle: saline with Tween-80): 0 of 3
survivor count (dose: 200.0 mg/kg/injection, schedule: Q04DX002 (ip), vehicle: saline with Tween-80): 0 of 3
survivor count (dose: 400.0 mg/kg/injection, schedule: Q04DX002 (ip), vehicle: saline with Tween-80): 0 of 3

CCCCCCC(C)OCC(=O)c1ccccc1 (stereo not given)
T/C (dose: 400.0 mg/kg/injection, schedule: Q04DX002 (ip), vehicle: saline): 126 % of control

CCCC(=O)OCC1OC(n2cc(C)c(=O)[nH]c2=O)CC1OC(=O)CCC (stereo not given)
survivor count (dose: 400.0 mg/kg/injection, schedule: Q01DX001 (ip), vehicle: carboxymethylcellulose (CMC)): 2 of 4

O=C1C=CC(=O)N1c1ccc(Cl)cc1
survivor count (dose: 10.0 mg/kg/injection, schedule: Q01DX009 (ip), vehicle: Klucel (hydroxypropylcellulose) (HPC)): 3 of 6
survivor count (dose: 20.0 mg/kg/injection, schedule: Q01DX009 (ip), vehicle: Klucel (hydroxypropylcellulose) (HPC)): 4 of 6
survivor count (dose: 40.0 mg/kg/injection, schedule: Q01DX009 (ip), vehicle: Klucel (hydroxypropylcellulose) (HPC)): 2 of 6
survivor count (dose: 60.0 mg/kg/injection, schedule: Q04DX003 (ip), vehicle: Klucel (hydroxypropylcellulose) (HPC)): 0 of 6
survivor count (dose: 90.0 mg/kg/injection, schedule: Q04DX003 (ip), vehicle: Klucel (hydroxypropylcellulose) (HPC)): 0 of 6
survivor count (dose: 135.0 mg/kg/injection, schedule: Q04DX003 (ip), vehicle: Klucel (hydroxypropylcellulose) (HPC)): 0 of 6

CC1(C)c2ccccc2N(CCCN2CCCCC2)c2ccccc21
survivor count (dose: 400.0 mg/kg/injection, schedule: Q01DX001 (ip), vehicle: water): 0 of 4

O=C(N/N=C/c1ccc(Cl)cc1)Nc1ccccc1
survivor count [2]: 0 of 6

O=C1c2cccc3cccc(c23)C(=O)N1NCCO
survivor count [2]: 1 of 6

CCCCN(CC)CCNc1cc(C)nc(/N=C(\N)Nc2ccc(Cl)c(Cl)c2)n1
survivor count (dose: 75.0 mg/kg/injection, schedule: Q01DX001 (ip), vehicle: other): 3 of 6
survivor count (dose: 75.0 mg/kg/injection, schedule: Q01DX009 (ip), vehicle: Klucel (hydroxypropylcellulose) (HPC)): 1 of 6
survivor count (dose: 150.0 mg/kg/injection, schedule: Q01DX001 (ip), vehicle: other): 0 of 6
survivor count (dose: 300.0 mg/kg/injection, schedule: Q01DX001 (ip), vehicle: other): 0 of 6

O=C(CBr)NCC(S)c1ccc(Cl)cc1 (stereo not given)
survivor count (dose: 200.0 mg/kg/injection, schedule: Q01DX009 (ip), vehicle: Klucel (hydroxypropylcellulose) (HPC)): 5 of 6
survivor count [2]: 3 of 6

C[SH+]c1ccccc1N=Cc1ccccn1.C[SH+]c1ccccc1N=Cc1ccccn1.[Ni+2].[O-][Cl+3]([O-])([O-])[O-]
survivor count (dose: 400.0 mg/kg/injection, schedule: Q01DX001 (ip), vehicle: saline): 0 of 4

CCN(CC)CC(=O)NCC(CC)(CCN1CCCCC1)c1cccc2ccccc12 (stereo not given)
survivor count (dose: 400.0 mg/kg/injection, schedule: Q01DX009 (ip), vehicle: saline): 0 of 6

Cc1ccc(C(=O)CCN2CCOCC2)cc1C
survivor count (dose: 400.0 mg/kg/injection, schedule: Q04DX003 (ip), vehicle: saline): 3 of 6
